{"source": "PubChem BioAssay AID1159578 (Peter MacCallum Cancer Centre, 2015)", "purpose": "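siRNA pools altering how lymphatic endothelial cells close a scratch wound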 (primary screen)", "cell system": "human lymphatic endothelial cells", "knock-down reagent": "siRNA pool against human genes, 40 nM", "time to read-out": "48 h after transfection", "read-out": "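High-content imaging of dye-stained cells in a scratch assay measures filled wound area and nuclei per well; duplicate means given as ratio to mock and robust z-score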", "scale": "migration robust z-score: higher = faster migration into the scratch; nuclei per well: higher = more cells in the well", "active means": "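Pools averaging fewer than 3300 nuclei are never called; remaining pools count as changed when migration robust z lies outside -2 to 2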", "calls": "active = migration changed; inactive = no migration change, or too few cells", "note": "The whole screen tested about 18,000 reagents; shown is an unselected part. Over the whole deposit, about 1,030 (5.7%) are marked active. 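Inactive calls also include pools with fewer than 3300 nuclei, whose migration was not assessed.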 Raw values are not corrected between plates. Not all columns of the deposit are shown."}
{"target gene": "BCL11A (BCL11 transcription factor A)", "PubChem SID": "SID255357909", "migration robust z-score": -0.23, "migration class with cell-count check": "migration z between -2 and 2; enough cells", "nuclei per well, duplicate mean": 4968, "Call": "inactive"}
{"target gene": "SSBP2 (single stranded DNA binding protein 2)", "PubChem SID": "SID255356381", "migration robust z-score": -2.93, "migration class with cell-count check": "under 3300 nuclei; migration not judged", "nuclei per well, duplicate mean": 2500, "Call": "inactive"}
{"target gene": "MBP (myelin basic protein)", "PubChem SID": "SID255350891", "migration robust z-score": -1.92, "migration class with cell-count check": "migration z between -2 and 2; enough cells", "nuclei per well, duplicate mean": 4368, "Call": "inactive"}
{"target gene": "FAM47C (family with sequence similarity 47 member C)", "PubChem SID": "SID255365974", "migration robust z-score": 0.12, "migration class with cell-count check": "migration z between -2 and 2; enough cells", "nuclei per well, duplicate mean": 6209, "Call": "inactive"}
{"target gene": "OR51A4 (olfactory receptor family 51 subfamily A member 4)", "PubChem SID": "SID255365802", "migration robust z-score": 0.08, "migration class with cell-count check": "migration z between -2 and 2; enough cells", "nuclei per well, duplicate mean": 5004, "Call": "inactive"}
{"target gene": "RNPEP (arginyl aminopeptidase)", "PubChem SID": "SID255352143", "migration robust z-score": 0.8, "migration class with cell-count check": "migration z between -2 and 2; enough cells", "nuclei per well, duplicate mean": 6472, "Call": "inactive"}
{"target gene": "SGF29 (SAGA complex associated factor 29)", "PubChem SID": "SID255362163", "migration robust z-score": -0.33, "migration class with cell-count check": "migration z between -2 and 2; enough cells", "nuclei per well, duplicate mean": 5675, "Call": "inactive"}
{"target gene": "ZNF670 (zinc finger protein 670)", "PubChem SID": "SID255362078", "migration robust z-score": -0.57, "migration class with cell-count check": "migration z between -2 and 2; enough cells", "nuclei per well, duplicate mean": 5498, "Call": "inactive"}
{"target gene": "REG1B (regenerating family member 1 beta)", "PubChem SID": "SID255352085", "migration robust z-score": 1.38, "migration class with cell-count check": "migration z between -2 and 2; enough cells", "nuclei per well, duplicate mean": 5386, "Call": "inactive"}
{"target gene": "SMG9 (SMG9 nonsense mediated mRNA decay factor)", "PubChem SID": "SID255358982", "migration robust z-score": -1.27, "migration class with cell-count check": "migration z between -2 and 2; enough cells", "nuclei per well, duplicate mean": 5466, "Call": "inactive"}

Continued; the last 2 above are carried over.
{"target gene": "REG1B (regenerating family member 1 beta)", "PubChem SID": "SID255352085", "migration robust z-score": 1.38, "migration class with cell-count check": "migration z between -2 and 2; enough cells", "nuclei per well, duplicate mean": 5386, "Call": "inactive"}
{"target gene": "SMG9 (SMG9 nonsense mediated mRNA decay factor)", "PubChem SID": "SID255358982", "migration robust z-score": -1.27, "migration class with cell-count check": "migration z between -2 and 2; enough cells", "nuclei per well, duplicate mean": 5466, "Call": "inactive"}
{"target gene": "ITGA10 (integrin subunit alpha 10)", "PubChem SID": "SID255353609", "migration robust z-score": 0.04, "migration class with cell-count check": "migration z between -2 and 2; enough cells", "nuclei per well, duplicate mean": 5542, "Call": "inactive"}
{"target gene": "LRRK2 (leucine rich repeat kinase 2)", "PubChem SID": "SID255362507", "migration robust z-score": -0.08, "migration class with cell-count check": "migration z between -2 and 2; enough cells", "nuclei per well, duplicate mean": 4909, "Call": "inactive"}
{"target gene": "LAMP3 (lysosome associated membrane protein 3)", "PubChem SID": "SID255356902", "migration robust z-score": 0.98, "migration class with cell-count check": "migration z between -2 and 2; enough cells", "nuclei per well, duplicate mean": 5182, "Call": "inactive"}
{"target gene": "SH2D3A (SH2 domain containing 3A)", "PubChem SID": "SID255354762", "migration robust z-score": 0.42, "migration class with cell-count check": "migration z between -2 and 2; enough cells", "nuclei per well, duplicate mean": 5386, "Call": "inactive"}
{"target gene": "FBP2 (fructose-bisphosphatase 2)", "PubChem SID": "SID255353812", "migration robust z-score": -0.34, "migration class with cell-count check": "migration z between -2 and 2; enough cells", "nuclei per well, duplicate mean": 6791, "Call": "inactive"}
{"target gene": "PABPN1L (PABPN1 like, cytoplasmic)", "PubChem SID": "SID255365662", "migration robust z-score": -1.08, "migration class with cell-count check": "migration z between -2 and 2; enough cells", "nuclei per well, duplicate mean": 4319, "Call": "inactive"}
{"target gene": "FBXO41 (F-box protein 41)", "PubChem SID": "SID255363468", "migration robust z-score": -0.7, "migration class with cell-count check": "migration z between -2 and 2; enough cells", "nuclei per well, duplicate mean": 5668, "Call": "inactive"}
{"target gene": "SDHAF3 (succinate dehydrogenase complex assembly factor 3)", "PubChem SID": "SID255359225", "migration robust z-score": -0.3, "migration class with cell-count check": "migration z between -2 and 2; enough cells", "nuclei per well, duplicate mean": 5220, "Call": "inactive"}
{"target gene": "ZDHHC21 (zDHHC palmitoyltransferase 21)", "PubChem SID": "SID255365087", "migration robust z-score": -1.58, "migration class with cell-count check": "migration z between -2 and 2; enough cells", "nuclei per well, duplicate mean": 6784, "Call": "inactive"}
{"target gene": "SLC38A11", "PubChem SID": "SID255363488", "migration robust z-score": -0.08, "migration class with cell-count check": "migration z between -2 and 2; enough cells", "nuclei per well, duplicate mean": 5298, "Call": "inactive"}
{"target gene": "PCDHGA11 (protocadherin gamma subfamily A, 11)", "PubChem SID": "SID255358997", "migration robust z-score": 1.36, "migration class with cell-count check": "migration z between -2 and 2; enough cells", "nuclei per well, duplicate mean": 5852, "Call": "inactive"}
{"target gene": "ZNF613 (zinc finger protein 613)", "PubChem SID": "SID255360554", "migration robust z-score": 1.35, "migration class with cell-count check": "migration z between -2 and 2; enough cells", "nuclei per well, duplicate mean": 5014, "Call": "inactive"}
{"target gene": "MAP4K5 (mitogen-activated protein kinase kinase kinase kinase 5)", "PubChem SID": "SID255355664", "migration robust z-score": -0.34, "migration class with cell-count check": "migration z between -2 and 2; enough cells", "nuclei per well, duplicate mean": 5119, "Call": "inactive"}
{"target gene": "PKP4 (plakophilin 4)", "PubChem SID": "SID255353598", "migration robust z-score": 0.08, "migration class with cell-count check": "migration z between -2 and 2; enough cells", "nuclei per well, duplicate mean": 5383, "Call": "inactive"}
{"target gene": "STEAP2 (STEAP2 metalloreductase)", "PubChem SID": "SID255364598", "migration robust z-score": -0.76, "migration class with cell-count check": "migration z between -2 and 2; enough cells", "nuclei per well, duplicate mean": 4450, "Call": "inactive"}
{"target gene": "CD163 (CD163 molecule)", "PubChem SID": "SID255354197", "migration robust z-score": 0.31, "migration class with cell-count check": "migration z between -2 and 2; enough cells", "nuclei per well, duplicate mean": 5040, "Call": "inactive"}
{"target gene": "PIK3CB", "PubChem SID": "SID255351582", "migration robust z-score": -1.4, "migration class with cell-count check": "migration z between -2 and 2; enough cells", "nuclei per well, duplicate mean": 4495, "Call": "inactive"}
